# Experimental data reported in the supplement of paper PMC8728848.
# This is one part of the list.
# B1: rPitB (Streptococcus pneumoniae), A0A0I7U739 (protein)
# chain: MSEIEIINAKKIYHDVPVIENLNITIPKGSLFTLLGASGCGKTTLLRMIAGFNSIKDGEFYFDDTKINNMEPSKRNIGLVFQNYAIFPHLTVRDNVAFGLMQKKVPKEELIQQTNKYLELMQIAQYAD
# Columns and labels:
# Test in all cases: glycan array binding signal (z-score within array); higher = stronger binding
# Conditions in all cases: glycan notation: IUPAC condensed, linker removed
# [1] = molecular target: Neu5Ac(a2-3)Gal(b1-4)[Fuc(a1-3)]GlcNAc(b1-3)GalNAc
# Procedure, shortened: (§1)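 The Consortium for Functional Glycomics database supplied 3228 glycan arrays, of which those lacking an available protein sequence were dropped. The binding signal, a within-array Z-score, was averaged across arrays of the same protein sequence and across linkers. Negative scores can be read as non-binding.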
# [2] = molecular target: Neu5Ac(a2-3)Gal(b1-4)[Fuc(a1-3)]GlcNAc(b1-6)[Gal(b1-3)]GalNAc
# Procedure, shortened: as §1
# [3] = molecular target: Neu5Ac(a2-3)Gal(b1-4)[Fuc(a1-3)]GlcNAc(b1-6)[Neu5Ac(a2-3)Gal(b1-3)]GalNAc
# Procedure, shortened: as §1
# [4] = molecular target: Neu5Ac(a2-3)Gal(b1-4)[Fuc(a1-3)]GlcNAc6S
# Procedure, shortened: as §1
# [5] = molecular target: Neu5Ac(a2-3)Gal6S(b1-4)GlcNAc
# Procedure, shortened: as §1
# [6] = molecular target: Neu5Ac(a2-3)Gal6S(b1-4)[Fuc(a1-3)]GlcNAc
# Procedure, shortened: as §1
# Neu5Ac(a2-3)GalNAc = molecular target: Neu5Ac(a2-3)GalNAc
# Procedure, shortened: as §1
# [7] = molecular target: Neu5Ac(a2-3)GalNAc(b1-4)GlcNAc
# Procedure, shortened: as §1
# [8] = molecular target: Neu5Ac(a2-3)[GalNAc(b1-4)]Gal(b1-4)Glc
# Procedure, shortened: as §1
# [9] = molecular target: Neu5Ac(a2-3)[GalNAc(b1-4)]Gal(b1-4)GlcNAc
# Procedure, shortened: as §1
# [10] = molecular target: Neu5Ac(a2-3)[GalNAc(b1-4)]Gal(b1-4)GlcNAc(b1-3)GalNAc
# Procedure, shortened: as §1
# [11] = molecular target: Neu5Ac(a2-3)[Neu5Ac(a2-6)]GalNAc
# Procedure, shortened: as §1
# Neu5Ac(a2-6)Gal = molecular target: Neu5Ac(a2-6)Gal
# Procedure, shortened: as §1
# [12] = molecular target: Neu5Ac(a2-6)Gal(b1-3)GlcNAc(b1-3)[Gal(b1-4)GlcNAc(b1-6)]Gal(b1-4)Glc
# Procedure, shortened: as §1
# Neu5Ac(a2-6)Gal(b1-4)Glc = molecular target: Neu5Ac(a2-6)Gal(b1-4)Glc
# Procedure, shortened: as §1
# [13] = molecular target: Neu5Ac(a2-6)Gal(b1-4)GlcNAc
# Procedure, shortened: as §1
# [14] = molecular target: Neu5Ac(a2-6)Gal(b1-4)GlcNAc(b1-2)Man(a1-3)Man(b1-4)GlcNAc(b1-4)GlcNAc
# Procedure, shortened: as §1
# [15] = molecular target: Neu5Ac(a2-6)Gal(b1-4)GlcNAc(b1-2)Man(a1-3)[Gal(b1-4)GlcNAc(b1-2)Man(a1-6)]Man(b1-4)GlcNAc(b1-4)GlcNAc
# Procedure, shortened: as §1
# [16] = molecular target: Neu5Ac(a2-6)Gal(b1-4)GlcNAc(b1-2)Man(a1-3)[GlcNAc(b1-2)Man(a1-6)]Man(b1-4)GlcNAc(b1-4)GlcNAc
# Procedure, shortened: as §1
# [17] = molecular target: Neu5Ac(a2-6)Gal(b1-4)GlcNAc(b1-2)Man(a1-3)[GlcNAc(b1-2)Man(b1-4)GlcNAc(b1-2)Man(a1-6)]Man(b1-4)GlcNAc(b1-4)GlcNAc
# Procedure, shortened: as §1
# [18] = molecular target: Neu5Ac(a2-6)Gal(b1-4)GlcNAc(b1-2)Man(a1-3)[Man(a1-6)]Man(b1-4)GlcNAc(b1-4)GlcNAc
# Procedure, shortened: as §1
# [19] = molecular target: Neu5Ac(a2-6)Gal(b1-4)GlcNAc(b1-2)Man(a1-3)[Neu5Ac(a2-6)Gal(b1-4)GlcNAc(b1-2)Man(a1-6)]Man(b1-4)GlcNAc(b1-4)GlcNAc
# Procedure, shortened: as §1
# [20] = molecular target: Neu5Ac(a2-6)Gal(b1-4)GlcNAc(b1-2)Man(a1-6)Man(b1-4)GlcNAc(b1-4)GlcNAc
# Procedure, shortened: as §1
# [21] = molecular target: Neu5Ac(a2-6)Gal(b1-4)GlcNAc(b1-2)Man(a1-6)[Gal(b1-4)GlcNAc(b1-2)Man(a1-3)]Man(b1-4)GlcNAc(b1-4)GlcNAc
# Procedure, shortened: as §1
# [22] = molecular target: Neu5Ac(a2-6)Gal(b1-4)GlcNAc(b1-2)Man(a1-6)[GlcNAc(b1-2)Man(a1-3)]Man(b1-4)GlcNAc(b1-4)GlcNAc
# Procedure, shortened: as §1
# [23] = molecular target: Neu5Ac(a2-6)Gal(b1-4)GlcNAc(b1-2)Man(a1-6)[Man(a1-3)]Man(b1-4)GlcNAc(b1-4)GlcNAc
# Procedure, shortened: as §1
# [24] = molecular target: Neu5Ac(a2-6)Gal(b1-4)GlcNAc(b1-3)Gal(b1-3)GlcNAc
# Procedure, shortened: as §1
# [25] = molecular target: Neu5Ac(a2-6)Gal(b1-4)GlcNAc(b1-3)Gal(b1-4)GlcNAc
# Procedure, shortened: as §1
# [26] = molecular target: Neu5Ac(a2-6)Gal(b1-4)GlcNAc(b1-3)Gal(b1-4)GlcNAc(b1-3)Gal(b1-4)GlcNAc
# Procedure, shortened: as §1
# [27] = molecular target: Neu5Ac(a2-6)Gal(b1-4)GlcNAc(b1-3)Gal(b1-4)[Fuc(a1-3)]GlcNAc(b1-3)Gal(b1-4)[Fuc(a1-3)]GlcNAc
# Procedure, shortened: as §1
# [28] = molecular target: Neu5Ac(a2-6)Gal(b1-4)GlcNAc(b1-3)GalNAc
# Procedure, shortened: as §1
# [29] = molecular target: Neu5Ac(a2-6)Gal(b1-4)GlcNAc6S
# Procedure, shortened: as §1
# Neu5Ac(a2-6)GalNAc = molecular target: Neu5Ac(a2-6)GalNAc
# Procedure, shortened: as §1
# [30] = molecular target: Neu5Ac(a2-6)GalNAc(b1-4)GlcNAc
# Procedure, shortened: as §1
# [31] = molecular target: Neu5Ac(a2-6)GlcNAc(b1-4)GlcNAc
# Procedure, shortened: as §1
# [32] = molecular target: Neu5Ac(a2-6)GlcNAc(b1-4)GlcNAc(b1-4)GlcNAc
# Procedure, shortened: as §1
# Neu5Ac(a2-8)Neu5Ac = molecular target: Neu5Ac(a2-8)Neu5Ac
# Procedure, shortened: as §1
# [33] = molecular target: Neu5Ac(a2-8)Neu5Ac(a2-3)Gal(b1-4)Glc
# Procedure, shortened: as §1
# [34] = molecular target: Neu5Ac(a2-8)Neu5Ac(a2-3)[Gal(b1-3)GalNAc(b1-4)]Gal(b1-4)Glc
# Procedure, shortened: as §1
# [35] = molecular target: Neu5Ac(a2-8)Neu5Ac(a2-3)[GalNAc(b1-4)]Gal(b1-4)Glc
# Procedure, shortened: as §1
# [36] = molecular target: Neu5Ac(a2-8)Neu5Ac(a2-8)Neu5Ac
# Procedure, shortened: as §1
# [37] = molecular target: Neu5Ac(a2-8)Neu5Ac(a2-8)Neu5Ac(a2-3)Gal(b1-4)Glc
# Procedure, shortened: as §1
# [38] = molecular target: Neu5Ac(a2-8)Neu5Ac(a2-8)Neu5Ac(a2-3)[GalNAc(b1-4)]Gal(b1-4)Glc
# Procedure, shortened: as §1
# [39] = molecular target: Neu5Ac(a2-8)Neu5Ac(a2-8)Neu5Ac(a2-8)Neu5Ac(a2-3)[GalNAc(b1-4)]Gal(b1-4)Glc
# Procedure, shortened: as §1
# [40] = molecular target: Neu5Ac(b2-6)Gal(b1-4)GlcNAc
# Procedure, shortened: as §1
# Neu5Ac(b2-6)GalNAc = molecular target: Neu5Ac(b2-6)GalNAc
# Procedure, shortened: as §1
# [41] = molecular target: Neu5Ac9Ac(a2-3)Gal(b1-3)GlcNAc
# Procedure, shortened: as §1
# [42] = molecular target: Neu5Ac9Ac(a2-3)Gal(b1-4)GlcNAc
# Procedure, shortened: as §1
# [43] = molecular target: Neu5Ac9Ac(a2-6)Gal(b1-4)GlcNAc
# Procedure, shortened: as §1
# [44] = molecular target: Neu5Gc(a2-3)Gal(b1-3)GlcNAc
# Procedure, shortened: as §1
# [45] = molecular target: Neu5Gc(a2-3)Gal(b1-3)[Fuc(a1-4)]GlcNAc
# Procedure, shortened: as §1
# Neu5Gc(a2-3)Gal(b1-4)Glc = molecular target: Neu5Gc(a2-3)Gal(b1-4)Glc
# Procedure, shortened: as §1
# [46] = molecular target: Neu5Gc(a2-3)Gal(b1-4)GlcNAc
# Procedure, shortened: as §1
# [47] = molecular target: Neu5Gc(a2-3)Gal(b1-4)[Fuc(a1-3)]GlcNAc
# Procedure, shortened: as §1
# [48] = molecular target: Neu5Gc(a2-6)Gal(b1-4)GlcNAc
# Procedure, shortened: as §1
# Neu5Gc(a2-6)GalNAc = molecular target: Neu5Gc(a2-6)GalNAc
# Procedure, shortened: as §1
# [49] = molecular target: Neu5Gc(b2-6)Gal(b1-4)GlcNAc
# Procedure, shortened: as §1
binder,measurement,setting,value
B1,glycan array binding signal (z-score),[1],4.13
same,glycan array binding signal (z-score),[2],2.86
same,glycan array binding signal (z-score),[3],-0.266
same,glycan array binding signal (z-score),[4],-0.021
same,glycan array binding signal (z-score),[5],-0.599
same,glycan array binding signal (z-score),[6],-0.213
same,glycan array binding signal (z-score),Neu5Ac(a2-3)GalNAc,0.235
same,glycan array binding signal (z-score),[7],-0.428
same,glycan array binding signal (z-score),[8],0.073
same,glycan array binding signal (z-score),[9],-0.299
same,glycan array binding signal (z-score),[10],-0.463
same,glycan array binding signal (z-score),[11],-0.61
same,glycan array binding signal (z-score),Neu5Ac(a2-6)Gal,-0.654
same,glycan array binding signal (z-score),[12],-0.035
same,glycan array binding signal (z-score),Neu5Ac(a2-6)Gal(b1-4)Glc,-0.185
same,glycan array binding signal (z-score),[13],-0.5
same,glycan array binding signal (z-score),[14],-0.178
same,glycan array binding signal (z-score),[15],0.459
same,glycan array binding signal (z-score),[16],0.334
same,glycan array binding signal (z-score),[17],-0.255
same,glycan array binding signal (z-score),[18],0.505
same,glycan array binding signal (z-score),[19],-0.032
same,glycan array binding signal (z-score),[20],0.334
same,glycan array binding signal (z-score),[21],0.367
same,glycan array binding signal (z-score),[22],0.118
same,glycan array binding signal (z-score),[23],-0.154
same,glycan array binding signal (z-score),[24],0.35
same,glycan array binding signal (z-score),[25],0.046
same,glycan array binding signal (z-score),[26],0.323
same,glycan array binding signal (z-score),[27],0.032
same,glycan array binding signal (z-score),[28],-0.841
same,glycan array binding signal (z-score),[29],0.47
same,glycan array binding signal (z-score),Neu5Ac(a2-6)GalNAc,-0.725
same,glycan array binding signal (z-score),[30],-0.87
same,glycan array binding signal (z-score),[31],0.144
same,glycan array binding signal (z-score),[32],0.495
same,glycan array binding signal (z-score),Neu5Ac(a2-8)Neu5Ac,-0.145
same,glycan array binding signal (z-score),[33],-0.248
same,glycan array binding signal (z-score),[34],-0.053
same,glycan array binding signal (z-score),[35],-0.462
same,glycan array binding signal (z-score),[36],-0.484
same,glycan array binding signal (z-score),[37],0.611
same,glycan array binding signal (z-score),[38],-0.201
same,glycan array binding signal (z-score),[39],-0.44
same,glycan array binding signal (z-score),[40],0.31
same,glycan array binding signal (z-score),Neu5Ac(b2-6)GalNAc,-0.028
same,glycan array binding signal (z-score),[41],0.367
same,glycan array binding signal (z-score),[42],-0.889
same,glycan array binding signal (z-score),[43],-0.315
same,glycan array binding signal (z-score),[44],-0.303
same,glycan array binding signal (z-score),[45],0.021
same,glycan array binding signal (z-score),Neu5Gc(a2-3)Gal(b1-4)Glc,-0.415
same,glycan array binding signal (z-score),[46],0.172
same,glycan array binding signal (z-score),[47],-0.415
same,glycan array binding signal (z-score),[48],-0.644
same,glycan array binding signal (z-score),Neu5Gc(a2-6)GalNAc,-0.249
same,glycan array binding signal (z-score),[49],-0.518

# A different layout for some results above:
binder | measurement | setting | value
B1 | glycan array binding signal (z-score) | [13] | -0.5
same | glycan array binding signal (z-score) | [14] | -0.178
